PubChem BioAssay AID1053208 – Peter MacCallum Cancer Centre – 2014

Purpose: 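Synthetic lethal interactions between gene loss and doxorubicin in osteosarcoma cells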 (primary screen)
Cell system: mouse osteosarcoma cells, early-passage culture from an engineered mouse model of fibroblastic bone tumour
Knock-down reagent: siRNA pool against mouse genes, 40 nM
Time to read-out: about 120 h (48 h before drug, then 72 h with drug)
Conditions: doxorubicin 100 nM for 72 h, roughly 30-40% inhibitory dose
Read-out: 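Viability read as ATP luminescence after 72 h of 100 nM doxorubicin or none, duplicate wells averaged, scaled to non-targeting siRNA, then expressed as robust z-scores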
Direction: viability z-score with doxorubicin: higher = more viable cells under doxorubicin; viability z-score without drug: higher = more viable cells with knock-down alone
Rule for the call: 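Called active if knock-down leaves viability unchanged without drug (z within -2 to 2) but lowers it with doxorubicin (z at or under -2)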
Shown is one part, drawn at random, of about 17,000 reagents. Over the whole deposit, 788 (4.7%) are marked active. 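Calls rest on z-score classes alone; an extra cut-off of viability at most 70% of control was not applied to them.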 Unmarked entries are inactive. Not all columns of the deposit are shown. Reagent sequences are not shown.

After knock-down of Dcun1d1 (defective in cullin neddylation 1 domain containing 1) the results were combined z-score class no change with or without drug; viability z-score with doxorubicin -1.8; viability z-score without drug -1.85. Knock-down of Mtnr1a (melatonin receptor 1A) resulted in: combined z-score class no change with or without drug; viability z-score with doxorubicin 1.57; viability z-score without drug -1.18. Knock-down of Rps6ka4 (ribosomal protein S6 kinase A4) came out at: combined z-score class no change with or without drug; viability z-score with doxorubicin 1.46; viability z-score without drug 0.17. Against Vgll4 (vestigial like family member 4), the entry reads combined z-score class no change with or without drug; viability z-score with doxorubicin 0.45; viability z-score without drug -0.51. Against Sort1 (sortilin 1), the entry reads combined z-score class no change with or without drug; viability z-score with doxorubicin 0; viability z-score without drug 0.34. After knock-down of Pgpep1 (pyroglutamyl-peptidase I), the screen gave combined z-score class no change with or without drug; viability z-score with doxorubicin 1.24; viability z-score without drug 0.17.

For Spice1 (spindle and centriole associated protein 1), the values are combined z-score class no change with or without drug; viability z-score with doxorubicin 0.45; viability z-score without drug 0.17. After knock-down of Tenm4 (teneurin transmembrane protein 4), the record shows combined z-score class no change with or without drug; viability z-score with doxorubicin 1.8; viability z-score without drug 0.84. Fgd1 (FYVE, RhoGEF and PH domain containing 1) showed combined z-score class no change with or without drug; viability z-score with doxorubicin -0.45; viability z-score without drug 0.51. After knock-down of Cyp7b1 (cytochrome P450, family 7, subfamily b, polypeptide 1) the results were combined z-score class no change with or without drug; viability z-score with doxorubicin 1.35; viability z-score without drug 0.51. Against Matcap2 (microtubule associated tyrosine carboxypeptidase 2) the deposit lists combined z-score class low cell count with doxorubicin only (active); viability z-score with doxorubicin -2.02; viability z-score without drug -0.51. For Pdgfd (platelet-derived growth factor, D polypeptide) the deposit lists combined z-score class no change with or without drug; viability z-score with doxorubicin -1.91; viability z-score without drug -1.18.

Records above whose target name starts with S or s:
Sort1 (sortilin 1) | combined z-score class: no change with or without drug; viability z-score with doxorubicin: 0; viability z-score without drug: 0.34
Spice1 (spindle and centriole associated protein 1) | combined z-score class: no change with or without drug; viability z-score with doxorubicin: 0.45; viability z-score without drug: 0.17
